In paper PMC4624933:
No constants are given. Whether binding was seen depends on the method and setting. For part of these data: In cells and extracts the contact can be indirect. Some entries that bind do so weakly or less than the wild type.

By UniProt entry, the sequences of proteins in these tests, tags left out. Residues count along the entry.
UniProt P05556, residues 752-798: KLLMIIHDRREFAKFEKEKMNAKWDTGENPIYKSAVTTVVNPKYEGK
UniProt P05106, residues 742-788: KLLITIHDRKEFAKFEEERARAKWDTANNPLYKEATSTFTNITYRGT

Experiments:
[1] = target: GST-β1 integrin cytoplasmic tail (UniProt P05556); assay: pull-down; GST-β1 or GST-β3 cytoplasmic tails on glutathione-Sepharose beads, incubated 4 h at 4°C with pre-osteoblast lysates (cell lysis buffer: 10 mM PIPES pH 6.8, 100 mM NaCl, 0.1% deoxycholate, 0.5% Triton X100); beads and lysates pre-incubated 1 h with BJINT derivatives (printed 50 mM) or vehicle; Western blot with anti kindlin or anti talin head antibodies; only the target purified
[2] = target: GST-β3 integrin cytoplasmic tail (UniProt P05106); assay: as above
[3] = target: GST kindlin-2-FERM domain (UniProt Q96AC1); assay: ELISA; solid phase binding assay, room temperature; Maxisorp plates coated with 10 μg/mL GST-talin-F2/F3 or GST kindlin-2-FERM domain; biotinylated GST-β integrin tails in cell lysis buffer (non-ionic detergent) at increasing concentrations, 1 h; streptavidin-HRP/ABTS, A405; signal on plain GST subtracted; both purified

GFP-kindlin-2 (from UniProt Q96AC1 1-680)
binding [1]: binds | binding [2]: binds

biotinylated GST-β1 integrin cytoplasmic tail (from UniProt P05556 752-798) (domain or fragment)
binding [3]: binds

biotinylated GST-β3 integrin cytoplasmic tail (from UniProt P05106 742-788) (domain or fragment)
binding [3]: binds

B1: endogenous kindlin-2 (protein, UniProt Q8CIB5 1-680)
chain: MALDGIRMPDGCYADGTWELSVHVTDLNRDVTLRVTGEVHIGGVMLKLVEKLDVKKDWSDHALWWEKKRTWLLKTHWTLDKCGIQADAKLQFTPQHKLLRLQLPNMKYVKVKVNFSDRVFKAVSDICKTFNIRHPEELSLLKKPRDPTKKKKKKLDDQSEDEALELEGPLIMPGSGSIYSSPGLYSKTMTPTYDAHDGSPLSPTSAWFGDSALSEGNPGILAVSQPVTSPEILAKMFKPQALLDKAKTNQGWLDSSRSLMEQDVKENEALLLRFKYYSFFDLNPKYDAIRINQLYEQAKWALLLEEIECTEEEMMMFAALQYHINKLSIMTSENHLNNSDKEVDEVDAALSDLEITLEGGKTSTILGDITSIPELADYIKVFKPKKLTLKGYKQYWCTFKDTSISCYKSREESSGTPAHQLNLRGCEVTPDVNISGQKFNIKLLIPVAEGMNEIWLRCDNEKQYAHWMAACRLASKGKTMADSSYNLEVQNILSFLKMQHLNPDPQLIPDQITTDVNPECLVSPRYLKKYKSKQITARILEAHQNVAQMSLIEAKMRFIQAWQSLPEFGITHFIARFQGGKREELIGIAYNRLIRMDASTGDAIKTWRFSNMKQWNVNWEIKMVTVEFADEVRLSFICTEVDCKVVHEFIGGYIFLSTRAKDQNESLDEEMFYKLTSGWV
binding [1]: binds | binding [2]: binds
